# Earlier results, collected in US10059717B2, “Urea compounds containing 3,4-dihydropyrimido[4,5-D]pyrimidin-2(1H)-one skeleton as protein kinase inhibitors” (KOREA INSTITUTE OF SCIENCE AND TECHNOLOGY, priority 2016, dated 2018).
# At least one structure is not confirmed: it was looked up by name or label, or the drawing left a doubt.
# System: AML patients with a mutant NRAS gene
# Details: three AML patients with a mutant NRAS gene, phase II; cited from earlier work
compound,measurement,value
Cn1cnc2c(F)c(Nc3ccc(Br)cc3Cl)c(C(=O)NOCCO)cc21 [selumetinib],therapeutic effects,has not exhibited therapeutic effects
